# From PubChem BioAssay AID1671190 (National Center for Advancing Translational Sciences (NCATS), 2021)
# Protein sequences, listed by entry. Tags and fused reporters are not part of them. Lines headed by an entry give the natural chain unless they say otherwise; changes in a name come on top.
# UniProt P18054: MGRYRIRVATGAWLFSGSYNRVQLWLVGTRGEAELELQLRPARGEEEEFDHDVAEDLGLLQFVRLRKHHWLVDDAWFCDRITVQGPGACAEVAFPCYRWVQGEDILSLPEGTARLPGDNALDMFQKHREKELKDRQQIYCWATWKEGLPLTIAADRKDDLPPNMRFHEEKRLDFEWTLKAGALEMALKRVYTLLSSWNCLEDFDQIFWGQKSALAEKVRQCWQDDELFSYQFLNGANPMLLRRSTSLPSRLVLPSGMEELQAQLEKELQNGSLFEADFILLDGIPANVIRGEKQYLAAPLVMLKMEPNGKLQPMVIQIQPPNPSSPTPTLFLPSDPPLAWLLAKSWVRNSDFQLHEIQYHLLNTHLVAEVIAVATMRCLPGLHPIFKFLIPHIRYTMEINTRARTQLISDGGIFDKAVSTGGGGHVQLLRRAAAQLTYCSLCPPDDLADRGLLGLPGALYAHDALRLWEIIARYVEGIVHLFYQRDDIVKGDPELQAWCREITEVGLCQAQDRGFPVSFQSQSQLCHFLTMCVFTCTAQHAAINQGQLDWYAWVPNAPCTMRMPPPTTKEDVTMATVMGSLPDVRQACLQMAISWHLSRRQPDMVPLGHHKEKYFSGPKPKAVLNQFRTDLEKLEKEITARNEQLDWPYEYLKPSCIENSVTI
# Hit rate of the full screen: of about 580,000 compounds, about 6,100 (1.1%) were called active. The shares of active, inactive and inconclusive entries below differ from those in the screen. The call rests on the fitted dose curve; in most records, active means well fitted inhibition curve with a large enough effect; inconclusive means small, poorly fitted or top-dose-only effect, or another doubt; inactive means no such curve, though single readings can be large or run the other way. Potencies of inconclusive entries are doubtful fits and often do not repeat.
# Molecular target: Polyunsaturated fatty acid lipoxygenase ALOX12 (Homo sapiens) (UniProt P18054)
# Experiment: Primary qHTS assay for inhibitors of human arachidonate 12S-lipoxygenase (ALOX12): Round 2
# Details: purified 12hLO, xylenol orange hydroperoxide absorbance; series mostly up to 108 µM
# How it was run: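 Hydroperoxide product was detected by ferrous iron/xylenol orange as the 573 to 405 nm absorbance ratio. Arachidonic acid at 40 uM (final) was turned over for 30 min at room temperature by 150 nM human 12hLO, pH 7.0 Hepes buffer, after 15 min compound preincubation.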
# Potency means the concentration at half of the fitted maximal effect.
row,SMILES,Potency
1,CC(=O)Nc1ccc(-c2csc(NNC(=O)c3ccc(C)cc3)n2)cc1,inactive
2,Nc1c(S(=O)(=O)c2cccs2)c2nc3ccccc3nc2n1Cc1ccc2c(c1)OCO2,"inconclusive: 63.1 µM [inhibitor, partial curve, poor fit]"
3,Cc1ccc(CN2CC(N3CCN(c4ccccn4)CC3)CS2(=O)=O)cc1 (centres undefined),"inconclusive: 100 µM [inhibitor, single point]"
4,CC/C=C\CCOC(=O)CCCCC,inactive
5,COCCN1C(=O)CO[C@H]2CN(C(=O)Nc3ccc(F)cc3)C[C@H]21,inactive
6,CCOc1ccccc1NC(=O)Nc1cc(C)c2nc(NC(C)=O)sc2c1,"inconclusive: 56.2 µM [inhibitor, partial curve, poor fit]"
7,O=C(CSc1nc(-c2ccccc2)nc2cc(=O)[nH]n12)Nc1ccccc1,inactive
8,Cc1csc(C(C#N)C(=O)CSc2ccc3c(c2)OCCO3)n1 (centres undefined),"inconclusive: 35.5 µM [inhibitor, partial curve, poor fit]"
9,COc1cc(C2C(C(=O)C(C)(C)C)=C(O)C(=O)N2Cc2ccccc2)ccc1O (centres undefined),"inconclusive: 2.82 µM [inhibitor, full curve, poor fit]"
10,CC(C)Nc1nc(NCCO)nc2ccccc12,"inconclusive: 112 µM [inhibitor, single point]"
11,CC(C)C1C(=O)N(Cc2cn(CC3CCCCC3)nn2)CCS(=O)(=O)N1Cc1ccc(-c2ccc(F)nc2)cc1 (centres undefined),"inconclusive: 126 µM [inhibitor, single point]"
12,O=C(/C=C/c1ccccc1)Oc1ccccc1C(=S)N1CCOCC1,inactive
13,CCCc1nc(SC)ncc1C(=O)NCc1ccc(C)cc1,"inconclusive: 35.5 µM [inhibitor, partial curve, poor fit]"
14,COc1ccc(OCC(=O)NNC(=S)NC(=O)C2CCCCC2)cc1,"inconclusive: 70.8 µM [inhibitor, partial curve, poor fit]"
15,Cc1cccc(NC(=O)Cn2c(-c3cccc(Cl)c3)nc(C)c(CCO)c2=O)c1,"inconclusive: 14.1 µM [inhibitor, partial curve, poor fit]"
16,S=c1[nH]nc(-c2ccc3ccccc3n2)n1-c1ccc2ncccc2c1,"inconclusive: 44.7 µM [inhibitor, partial curve, poor fit]"
17,C/C(=N\OCC(=O)N/N=C/c1ccc(C)cc1O)c1cccs1,inactive
18,O=C(NCCn1cc(SCc2ccc(F)cc2)c2ccccc21)c1cccs1,"inconclusive: 50.1 µM [inhibitor, partial curve, poor fit]"
19,CC(=O)c1ccc(NS(=O)(=O)c2ccccc2)cc1,inactive

# From entry 15 to 16, as listed above:
row,SMILES,Potency
15,Cc1cccc(NC(=O)Cn2c(-c3cccc(Cl)c3)nc(C)c(CCO)c2=O)c1,"inconclusive: 14.1 µM [inhibitor, partial curve, poor fit]"
16,S=c1[nH]nc(-c2ccc3ccccc3n2)n1-c1ccc2ncccc2c1,"inconclusive: 44.7 µM [inhibitor, partial curve, poor fit]"
